About 270 (21%) of roughly 1,300 compounds were called active.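 The calls were made as follows: active = dose-dependent rise or fall in viability, either side of zero, with half-maximal concentration at or below a set limit; inconclusive = flat curve at 30 to 70% viability loss, or poor fit; inactive = flat within 30% either way, or potency beyond limit.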 The list shows a part of the results. Potency and affinity values are given separately.

This test can be described thus: A375 melanoma cell viability reduction, dose response, counter-screen for MITF modulator project, cherry-pick samples, set 2 (AID 540335).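 Also: A375 human melanoma cells which do not depend on MITF; 0% = median of neutral control wells and 100% = double that signal.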 Particulars: CellTiter-Glo ATP luminescence, 24 h; at 35 µM (top of the series). On the technique in general: Counterscreens check selectivity or assay interference.
`CC(C)(C)C(=O)/C(=C/c1ccncc1)n1cncn1`: the activity change, negative = decreased viability is inactive: 7.09%.
For `CCN(CC)Cc1c(O)ccc2c1O/C(=C\C=C\c1ccccc1)C2=O`, the activity change, negative = decreased viability was inactive: 0.171%.
`Cc1ccccc1OCC(=O)Nc1cccc(C(=O)O)c1`: the activity change, negative = decreased viability is inactive: 5.58%.
On to `COC(=O)c1c(NC(=O)c2nc3ccccc3s2)sc2c1CC(C)(C)NC2(C)C`, for which the activity change, negative = decreased viability is inactive: -78.2%.
In the case of `Cc1cc(C(=O)N/N=C/c2ccc([N+](=O)[O-])o2)c(C)o1` it was inactive: -13.2%; in that of `Cn1c(/C=C/c2cccc([N+](=O)[O-])c2)c([N+](=O)[O-])c(=O)n(C)c1=O`, inactive: 11.9%.
In the case of `CN(C)/C=N/c1ncc(C(=O)c2ccccc2)s1` it was inactive: 7.2%; in that of `O=[N+]([O-])c1ccc(/C=N/n2cnc3ccccc32)s1`, inactive: -23.5%.
In the case of `Cc1ccc2c(c1)Oc1ccc(NC(=O)CCl)cc1C(=O)N2` it was inactive: -29.5%; in that of `COc1cc(C(=O)Oc2c(CN3CCOCC3)cc(Cl)c3cccnc23)cc(OC)c1OC`, inactive: -24.5%.
For `CC1(C)CC(NC(=O)c2ccc(Cl)c(S(=O)(=O)N(Cc3ccccc3)c3ccccc3)c2)CC(C)(C)N1`, the activity change, negative = decreased viability is inactive: -56.2%.
Consider `O=C(CNc1ccc2ccccc2c1)N/N=C/c1ccc([N+](=O)[O-])o1`, for which the activity change, negative = decreased viability is inactive: -2.61%.
In the case of `O=C(NCc1ccccc1)NC1(C(=O)Nc2ccc3c(c2)OCCO3)CCCCC1` it was inactive: -5.78%; in that of `Nc1ccc(-c2nc3c(Cl)cc(N)cc3[nH]2)cc1`, inactive: -11%; in that of `CCOc1ccc(NC(=O)CCC(=O)N/N=C/c2ccc([N+](=O)[O-])s2)cc1`, inactive: 1.66%.
Then `Cn1c(COc2ccccc2Br)nc2ccccc21`, with inactive: -3.81%.
Then `CN(C)CCCNC(=O)/C(=C\c1ccc(-c2ccc(Br)cc2)o1)NC(=O)c1ccccc1`, with inactive: -70.8%.
In the case of `Cc1c(C=O)c2cc(OCc3ccccc3)ccc2n1C`, the activity change, negative = decreased viability is inactive: 6.35%.
In the case of `CCOC(=O)c1cnc2c(ccc3ccccc32)c1N` it was inactive: 7.59%; in that of `CCc1ccc(Nc2nc(C)cc(C)n2)cc1`, inactive: -7.25%; in that of `O=C1CN(c2ccccc2)C(=S)N1C(=O)c1ccc(Br)cc1`, inactive: 2.51%.
In the case of `CCN(CC)S(=O)(=O)c1cccc(C(=O)N/N=C/c2ccc([N+](=O)[O-])o2)c1` it was inactive: -19.6%; in that of `CC(Oc1ccc(F)cc1)C(=O)Nc1nc(-c2ccccn2)cs1` (stereo not given), inactive: -17.3%; in that of `CCOc1ccc2nc(C)cc(Nc3cccc([N+](=O)[O-])c3)c2c1`, inactive: -48.8%.
In the case of `CCOc1ccc(-n2c(-c3ccc(Br)cc3)c[n+]3c2CCCCC3)cc1` it was inactive: -24%; in that of `O=C(Nc1ccc2nc(-c3ccccc3)[nH]c2c1)c1ccco1`, inactive: -0.11%; in that of `CC(=O)Nc1ccc(NC(=O)c2nc(S(=O)(=O)Cc3ccccc3)ncc2Cl)cc1`, inactive: -26.8%.
Turning to `O=C(COC(=O)c1ccc(F)c([N+](=O)[O-])c1)NC(=O)NCc1ccccc1`, the activity change, negative = decreased viability was inactive: -14.4%.
As to `CCOc1ccc(-c2ccc(SC)nn2)cc1`, the activity change, negative = decreased viability was inactive: -38.4%.
Then `O=C(Nc1ccc2c(c1)OCCO2)c1ccoc1`, with inactive: 6.88%; and `CCCCN(CC)CCCNC(=O)c1cc2c(=O)n(CC)c3ccccc3c2s1`, with inactive: -4.43%.
In the case of `Cc1ccc(OCCNCc2ccccc2)c(C)c1` it was inactive: 3.67%.
In the case of `CC1CN(N=Cc2ccc([N+](=O)[O-])o2)C(=N)O1` (stereo not given) it was inactive: -4.37%.
`CC(C)S(=O)(=O)c1csc(C(=O)Nc2ccc(F)cc2)c1N`: the activity change, negative = decreased viability was inactive: -0.729%.
With `COc1ccc2oc(=N)c(C(=O)Nc3ccccc3Cl)cc2c1`, the activity change, negative = decreased viability was inactive: 7.03%.
Then `CN(C(=O)/C=C/c1ccc([N+](=O)[O-])s1)c1ccccc1`, with inactive: -12.6%; and `COc1ccccc1N(C(=O)CCl)c1cn(C(C)=O)c2ccccc12`, with inactive: -14%.
In the case of `Cc1ccc(C(=O)NC2=NCCS2)cc1Cl` it was inactive: -0.554%; in that of `COc1ccc(NC(=O)C2COc3ccccc3O2)cc1` (stereo not given), inactive: -6.15%.
In the case of `CN1CCN(CCCOc2ccc(-c3ccccc3)cc2)CC1` it was inactive: -0.67%; in that of `Cc1cc(C(=O)Nc2cccc(C(=O)O)c2)oc1C`, inactive: -8.99%.
As to `O=C(Cn1ncc(Cl)c(Cl)c1=O)N1CCN(Cc2ccccc2)CC1`, the activity change, negative = decreased viability is inactive: 62.3%.
In the case of `CCOC(=O)C1(Cc2ccccc2)CCCN(CCCn2cccn2)C1` (stereo not given) it was inactive: 2.85%.
Then `O=[N+]([O-])c1c(NCCCO)cc(Sc2ccc(Cl)cc2)c2nonc12`, with inactive: -22.9%; and `CCSc1nc2c(cnn2-c2ccccc2)c(=O)n1N`, with inactive: -0.732%.
Take `Cc1ccc(C(=O)N/N=C\c2ccc([N+](=O)[O-])s2)cn1`: the activity change, negative = decreased viability was inactive: -30.2%.
In the case of `Cc1ccc(NC(=O)Cc2noc3ccccc23)cc1` it was inactive: 12.6%; in that of `CCN1CCN(/C=N/c2nc3c(s2)CCCC3)CC1`, inactive: 3.19%; in that of `Cc1ccc(-c2c[n+](Cc3ccc(Cl)c(Cl)c3)c3n2CCC3)cc1`, inactive: -14.8%.
Regarding `COc1cccc(CNc2nc3ccccc3n2C)c1O`, the activity change, negative = decreased viability is inactive: 4.14%.
As to `O=C(CSc1ccccn1)c1ccc2c(c1)OCO2`, the activity change, negative = decreased viability was inactive: 9.9%.
In the case of `O=C(CNC(=O)c1ccccc1)N/N=C/c1ccc([N+](=O)[O-])s1` it was inactive: -17.8%; in that of `Cc1ccccc1Cn1c(=N)n(CC(=O)c2ccc([N+](=O)[O-])cc2)c2ccccc21`, inactive: -72.3%.
Then `CC(C)n1cc(/C=C/c2cc[n+](C)cc2)c2ccccc21`, with inactive: -9.9%.
Then `Cn1c(SCC(=O)N/N=C/c2ccc([N+](=O)[O-])s2)nnc1-c1ccccc1`, with inactive: -30.7%; and `CCOc1cc(/C=C2/NC(=S)NC2=O)ccc1OCc1ccc([N+](=O)[O-])cc1`, with inactive: -36.1%; and `Cc1ccc(NC(=O)c2cc3cccc([N+](=O)[O-])c3[nH]2)cc1`, with inactive: 4.69%.
For the molecule `Cc1ccc(-n2nnnc2Sc2nc([N+](=O)[O-])nn2C)c(C)c1`, the activity change, negative = decreased viability was inactive: -0.377%.
Then `NNC(=O)c1cc2ccccc2cc1O`, with inactive: 3.09%; and `COc1ccc(C(C(=O)NC2CCCCC2)N(C(=O)CCl)c2ccc(OC)cc2)cc1` (stereo not given), with inactive: -7.56%.
In the case of `C=C1C(=O)O[C@@H]2[C@H]1[C@@H](OC(=O)/C(C)=C/C)C/C(C)=C\C(=O)/C=C(\C)[C@@H]2O` it was inactive: 75.7%.
In the case of `FC(F)(F)Oc1ccc(-c2cn3cccnc3n2)cc1` it was inactive: 2.8%; in that of `N=c1n(CC(=O)c2ccc([N+](=O)[O-])cc2)c2ccccc2n1Cc1ccccc1Cl`, inactive: -48.1%; in that of `Cc1nc2ccccc2n1/N=C/c1ccc([N+](=O)[O-])s1`, inactive: -9.11%.
In the case of `CC1(C)CC(=O)C=C(NC2=CC3OC(c4ccccc4)OCC3OC2=O)C1` (stereo not given), the activity change, negative = decreased viability was inactive: 7.2%.
Turning to `COc1cc2c(c(OC)c1OC)-c1ccc(OC)c(=O)cc1C(NC(C)=O)CC2` (stereo not given), the activity change, negative = decreased viability was inactive: 15.7%.
Then `O=C(NC1CCCCC1)C(c1cccnc1)N(C(=O)CCl)c1cccc(Cl)c1` (stereo not given), with inactive: -17%; and `O=c1nc(N/N=C/c2ccccn2)cn[nH]1`, with inactive: -38.7%.
As to `Cc1ccc(OCC(=O)Nc2ccccc2F)cc1`, the activity change, negative = decreased viability is inactive: 9.43%.
Then `Cc1ccc(-c2cc3onc(-c4ccccc4)c3c(=O)n2C)cc1`, with inactive: -12.6%.
In the case of `COc1cccc(/C=C/C(=O)c2ccc3c(c2)OCCO3)c1OC` it was inactive: -0.491%.
Then `CC(=O)NC1=C(N(C)C2CCS(=O)(=O)C2)C(=O)c2ccccc2C1=O` (stereo not given), with inactive: -28.4%.
Turning to `O=c1c(Cl)c2oc3ccccc3nc-2c2ccccc12`, the activity change, negative = decreased viability was inactive: -8.83%.
`O=C(Nc1cccc(S(=O)(=O)N2CCCCC2)c1)c1ccc([N+](=O)[O-])o1`: the activity change, negative = decreased viability was inactive: -10.1%.
Consider `COc1ccc(-c2nc(-c3ccccc3OC)no2)cc1OC`, for which the activity change, negative = decreased viability is inactive: 1.79%.
Then `COc1ccc(C(=O)NCC(=O)c2ccccc2)cc1`, with inactive: -5.61%.
In the case of `O=C(/C=C/c1ccc2c(c1)OCCO2)c1ccccc1` it was inactive: -9.23%; in that of `O=C(/C=C/NNC(=O)c1ccccc1)c1ccc([N+](=O)[O-])cc1`, inactive: -38.3%.
Then `Cc1c(Cl)c([N+](=O)[O-])nn1Cc1ccc(C(=O)N/N=C\c2cc(Cl)ccc2O)o1`, with inactive: -24.9%; and `COc1ccc(C(=O)/C=C/C(=O)N(CC(=O)NC2CCCCC2)Cc2ccc(F)cc2)c(O)c1`, with inactive: -9.41%; and `CC(=O)Nc1ccc(S(=O)(=O)N2CCn3cccc3C2C)cc1` (stereo not given), with inactive: 3.9%.
For `O=C(NC1=NCCS1)c1ccc(Cl)c(Cl)c1`, the activity change, negative = decreased viability is inactive: -3.52%.
For `COc1c(C)cccc1C(=O)Nc1ccc(N2CCN(S(C)(=O)=O)CC2)cc1`, the activity change, negative = decreased viability is inactive: 9.28%.
Then `N/C(=N\OC(=O)c1ccccc1)c1ccccn1`, with inactive: -22.6%; and `Cc1ccccc1C(=O)O/N=C(\N)c1ccc([N+](=O)[O-])cc1`, with inactive: 10.1%.
Then `COCC(C)Nc1ncnc2c1cnn2-c1ccc(Cl)cc1` (stereo not given), with inactive: 5.28%; and `COc1cccc(/C=N/NC(=O)CN2CC(c3ccccc3)CC2=O)c1OC` (stereo not given), with inactive: 13.7%; and `O=C(N/N=C/C(Cl)=C\c1ccccc1)c1cccs1`, with inactive: -9.05%.
Then `O=C(Cn1ncc(Cl)c(Cl)c1=O)NCC1CCCCC1`, with inactive: -26.7%.
Take `O=C(NC1=NCCS1)C1COc2ccccc2O1` (stereo not given): the activity change, negative = decreased viability is inactive: -22.8%.
In the case of `O=C(Cc1ccccc1)Nc1ccc(NC(=O)c2ccco2)nc1` it was inactive: -4.08%; in that of `CCOC(=O)c1ccc(NC(=O)c2ccc(C)c(S(=O)(=O)N3CCOCC3)c2)cc1`, inactive: -15.2%.
In the case of `O=C(O)c1cccc(N/N=C/c2ccc(OC(F)(F)F)cc2)c1` it was inactive: 14.9%; in that of `CCOc1cc(/C=N/Nc2cccc(C(=O)O)c2)ccc1OC(=O)c1ccccc1`, inactive: 14.3%.
Then `CCCOc1ccc(C(=O)Nc2ccc3c(c2)OCCO3)cc1`, with inactive: 0.175%.

The values are drawn from PubChem BioAssay AID540335 (Broad Institute, 2011).
